Experimental data published in PubChem BioAssay AID1487 (National Center for Advancing Translational Sciences (NCATS), 2009).
The other results are listed elsewhere or left out. The main result of the screen is listed elsewhere. These columns were measured beside it and carry no call. Compounds called inactive in the main read-out are mostly missing here. Potencies come from curve fits of mixed quality, noted in brackets.

Experiment: qHTS Assay for Modulators of Lamin A Splicing
Details: HeLa LMNA splicing GFP/RFP minigene ratio, 48 h
Method in brief: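 S3 HeLa cells stably expressing lamin A-EGFP splicing minigene plus DsRed2, 600 cells/well, 48 h compound exposure at 37C. Laser-scanning cytometry; analysed as GFP (500-530 nm)/RFP (575-640 nm) total intensity ratio; 0.5% DMSO vehicle.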

[1] = measured here: GFP splicing reporter channel
[2] = measured here: RFP viability control channel

COc1ccc(C)cc1NC(=O)COC(=O)C1CCN(C(=O)c2ccc(Cl)cc2)CC1
AC50 [1]: 0.0126 µM [falling, full curve, poor fit] | AC50 [2]: 0.0447 µM [falling, full curve, poor fit]

Cc1ccc2oc(-c3cccc(NC(=S)NC(=O)/C=C/c4ccco4)c3)nc2c1
AC50 [1]: 11.2 µM [falling, single point] | AC50 [2]: 12.6 µM [falling, partial curve]

CCCC1=[N+](CC(=O)c2ccc(C)cc2)CCn2cccc21
AC50 [2]: 22.4 µM [rising, single point]

N#CC(=C(\N)Sc1ccccc1N)/C(C#N)=C(/N)Sc1ccccc1N
AC50 [1]: 2.24 µM [falling, partial curve] | AC50 [2]: 0.398 µM [falling, full curve, poor fit]

COc1cccc(-n2c(SCC(=O)c3c[nH]c4ccccc34)nc3ccccc3c2=O)c1
AC50 [2]: 35.5 µM [rising, single point]

Fc1ccc(/C=C\c2nccc3c2[nH]c2ccccc23)cc1
AC50 [1]: 22.4 µM [falling, single point]

CN(C)c1ccnc(-c2cccc(NS(C)(=O)=O)c2)n1
AC50 [1]: 17.8 µM [rising, single point] | AC50 [2]: 15.8 µM [rising, single point]

Cc1nc2cc(C(F)(F)F)ccc2n1C
AC50 [1]: 0.891 µM [falling, full curve, poor fit]

CC(=O)c1c(C)nn(CC(O)COc2ccc3c(c2)CCC3)c1C (stereo unspecified)
AC50 [2]: 11.2 µM [rising, partial curve]

COc1ccc(NS(=O)(=O)c2ccc3oc(SC4CCOC4=O)nc3c2)cc1 (stereo unspecified)
AC50 [1]: 10 µM [falling, partial curve] | AC50 [2]: 8.91 µM [falling, partial curve]

COC(=O)c1cc2c([nH]c3ccccc32)c(C)n1
AC50 [2]: 10 µM [rising, partial curve, poor fit]

CCOc1cc(NC(=S)NC)c(OCC)cc1NC(=O)c1ccc(OC)cc1
AC50 [1]: 0.0631 µM [rising, full curve, poor fit]

CC(C)=N/N=C1/NC(=O)C(CC(=O)Nc2cc(Cl)ccc2C)S1 (stereo unspecified)
AC50 [1]: 7.08 µM [rising, partial curve, poor fit] | AC50 [2]: 0.0891 µM [rising, full curve, poor fit]

O=C(CN1c2ccccc2Sc2ccccc21)NNC(=S)Nc1ccc(Cl)cc1Cl
AC50 [1]: 25.1 µM [falling, single point] | AC50 [2]: 20 µM [falling, single point]

COc1ccc(/C=C2\CCCC3C2=NN(C(=O)CSc2n[nH]c(N)n2)C3c2ccc(OC)cc2)cc1 (stereo unspecified)
AC50 [1]: 31.6 µM [falling, partial curve, poor fit] | AC50 [2]: 20 µM [falling, partial curve]

Cc1ccc(OCC(=O)N/N=C/c2c[nH]c3ccccc23)c([N+](=O)[O-])c1
AC50 [1]: 7.08 µM [rising, partial curve] | AC50 [2]: 7.08 µM [rising, partial curve]

COCCN(CC(=O)Nc1cccc(C)c1)S(=O)(=O)c1ccc(S(=O)(=O)N2CCCC2)cc1
AC50 [1]: 3.98 µM [rising, partial curve]

CCC(COC(=O)Nc1cccc(C)c1)NC(=O)OCC(C)C (stereo unspecified)
AC50 [1]: 14.1 µM [rising, partial curve, poor fit] | AC50 [2]: 35.5 µM [rising, single point]

O=C(c1ccc(COc2ccccc2[N+](=O)[O-])o1)N1CCCCC1
AC50 [1]: 7.08 µM [rising, partial curve, poor fit] | AC50 [2]: 6.31 µM [rising, partial curve, poor fit]

Cc1nc2ccccc2c(=O)n1-c1ccc(NC(=O)c2cccc([N+](=O)[O-])c2)cc1
AC50 [2]: 3.16 µM [rising, single point]

COc1ccc(CNC(=O)CN(Cc2ccc(Cl)cc2)S(=O)(=O)c2ccccc2)cc1
AC50 [2]: 35.5 µM [rising, single point]

CNC(=O)CSc1nccn1Cc1ccc(Cl)cc1
AC50 [2]: 0.316 µM [falling, partial curve, poor fit]

CCOc1ccccc1Nc1nnc(SCc2ccc(C(=O)OC)o2)s1
AC50 [1]: 35.5 µM [rising, single point]

CCn1cc(Br)c(C(=O)Nc2ccc(F)c(Cl)c2)n1
AC50 [1]: 3.16 µM [rising, full curve, poor fit] | AC50 [2]: 5.01 µM [rising, partial curve, poor fit]

C=C1c2cccc(O)c2C(O)=C2C(=O)[C@@]3(O)C(O)=C(C(N)=O)C(=O)[C@@H](N(C)C)[C@@H]3[C@@H](O)[C@H]12
AC50 [1]: 0.355 µM [falling, single point] | AC50 [2]: 0.00316 µM [falling, full curve, poor fit]

CSc1ncc(C(=O)N2CCN(c3cc(C)ccc3C)CC2)c(C)n1
AC50 [2]: 0.0224 µM [falling, partial curve, poor fit]

O=C(COc1ccccc1Cl)Nc1ccc(C(=O)c2ccc(C(=O)O)cc2)cc1
AC50 [1]: 2 µM [falling, partial curve, poor fit] | AC50 [2]: 0.891 µM [falling, full curve, poor fit]

CC(C)Cn1c2c(c(O)c(C(=O)Nc3ncccc3O)c1=O)CCCC2
AC50 [2]: 17.8 µM [rising, partial curve, poor fit]

OC1(c2cccc(C(F)(F)F)c2)CCN(Cc2nnnn2CCc2ccccc2)CC1
AC50 [2]: 35.5 µM [rising, single point]

O=C1CC(c2ccco2)Cc2nc(N3CCN(Cc4ccc5c(c4)OCO5)CC3)ncc21 (stereo unspecified)
AC50 [1]: 12.6 µM [rising, single point] | AC50 [2]: 22.4 µM [rising, single point]

CCC(=O)Nc1cc(C)c(NC(=O)c2ccco2)cn1
AC50 [2]: 5.62 µM [rising, single point]

Cc1ccc(/C=C2\CCCC3=C2NC(=S)NC3c2ccc(C)cc2)cc1 (stereo unspecified)
AC50 [1]: 12.6 µM [rising, single point] | AC50 [2]: 25.1 µM [rising, partial curve]

CC(=O)NC(Cc1cccc(F)c1)C(=O)NC1CCN(C(=O)c2ccc(C)cc2)CC1 (stereo unspecified)
AC50 [2]: 10 µM [falling, partial curve, poor fit]

O=C(CSc1nccn1C1CCCC1)Nc1ccc(C(F)(F)F)cc1
AC50 [2]: 0.126 µM [falling, full curve, poor fit]

O=C(NO)c1ccccc1O
AC50 [1]: 11.2 µM [rising, partial curve, poor fit] | AC50 [2]: 0.0178 µM [falling, full curve, poor fit]

O=C(c1ccccc1)c1ccc(C(=O)N2CCN(c3ccc(F)cc3)CC2)o1
AC50 [2]: 22.4 µM [rising, partial curve]

COc1ccc(NC(=O)Nc2ccccc2C(N)=O)cc1OC
AC50 [1]: 17.8 µM [rising, partial curve] | AC50 [2]: 35.5 µM [rising, single point]

CCn1c(=O)c([N+](=O)[O-])c(NCCc2ccc(OC)c(OC)c2)c2ccccc21
AC50 [1]: 2 µM [rising, full curve] | AC50 [2]: 7.94 µM [rising, partial curve]

O=C(Cc1ccc(Cl)cc1Cl)Nc1cccc(S(=O)(=O)Nc2ccccc2F)c1
AC50 [1]: 14.1 µM [rising, partial curve, poor fit] | AC50 [2]: 12.6 µM [rising, partial curve]

CCC(C(=O)Nc1ccncc1)c1ccccc1 (stereo unspecified)
AC50 [1]: 10 µM [rising, partial curve] | AC50 [2]: 15.8 µM [rising, partial curve]

Cc1ccc(Cn2c(=O)c3c(nc4n3CCN4Cc3ccco3)n(C)c2=O)cc1
AC50 [2]: 17.8 µM [rising, single point]

CCC(C)NC(=O)CSc1nc2cc3c(cc2c(=O)n1CCCCCC(=O)NCc1ccc2c(c1)OCO2)OCO3 (stereo unspecified)
AC50 [2]: 11.2 µM [falling, partial curve, poor fit]

Cc1cc(C)c2c(C)c(C(=O)NCc3ccncc3)oc2c1
AC50 [2]: 15.8 µM [rising, partial curve, poor fit]

Cc1ccc(CNC(=O)C2CCN(S(=O)(=O)c3ccc4[nH]c(=O)ccc4c3)CC2)cc1
AC50 [1]: 22.4 µM [falling, partial curve, poor fit]

O=C(Nc1cccc(S(=O)(=O)N2CCCC2)c1)c1cc(-c2ccccn2)nc2ccccc12
AC50 [1]: 0.0355 µM [falling, partial curve, poor fit] | AC50 [2]: 0.00316 µM [falling, full curve, poor fit]

Cc1cc(-c2csc(NC(=O)c3cccc(S(=O)(=O)N(C)C)c3)n2)c(C)n1-c1ccccc1
AC50 [1]: 10 µM [rising, partial curve] | AC50 [2]: 12.6 µM [rising, partial curve]

C#CCOC(=O)c1ccccc1C(=O)n1nnc2ccccc21
AC50 [2]: 3.55 µM [rising, single point]

CCNc1ncc2nc(-c3cccs3)c(=O)n(CCc3ccccc3)c2n1
AC50 [1]: 12.6 µM [falling, partial curve] | AC50 [2]: 12.6 µM [falling, partial curve]

COc1cc(/C=C2\CC/C(=C\c3cc(OC)c(O)c(OC)c3)C2=O)cc(OC)c1O
AC50 [1]: 22.4 µM [falling, partial curve, poor fit] | AC50 [2]: 11.2 µM [falling, partial curve]

CCOc1ccccc1Nc1sc(C(=O)c2ccccc2)c(N)c1C(=O)Nc1ccccc1
AC50 [1]: 11.2 µM [falling, partial curve, poor fit] | AC50 [2]: 11.2 µM [falling, partial curve, poor fit]
